Test results reported in patent US10188665B2, “Ocular therapy using glucocorticoid derivatives selectively penetrating posterior segment tissues” (Allergan, Inc., priority 2005, dated 2019).
“Also recorded” adds a separate entry of the source. At least one structure is not confirmed: it was looked up by name or label, or the drawing left a doubt.

Tests used:
[1] = test system: VEGF-induced BRB breakdown (retinal leakage); test: VEGF-induced blood retinal barrier (BRB) breakdown, scanning ocular fluorophotometry of fluorescein leakage; format: in vivo, rabbit
[2] = test system: VEGF-induced BAB breakdown (iris leakage); test: VEGF-induced blood aqueous barrier (BAB) breakdown, scanning ocular fluorophotometry of fluorescein leakage; format: in vivo, rabbit
[3] = rabbit eye, 1 mg (100 μl of 10 mg/ml suspension) intravitreal, then intravitreal VEGF, read 48 h later
[4] = rabbit, corticosteroid administered systemically or intravitreally

For `C[C@@H]1C[C@H]2[C@@H]3CCC4=CC(=O)C=C[C@]4(C)[C@@]3(F)[C@@H](O)C[C@]2(C)[C@@]1(O)C(=O)CO` [Dexamethasone, dexamethasone], the “Inhibition of VEGF-induced BRB breakdown (fluorescein leakage into posterior segment)” value [1, 3] was “completely inhibited; also recorded: inhibit”, the “Block of VEGF-induced BRB breakdown (retinal leakage)” value [1, 4] was “completely blocked” and the “Inhibition of VEGF-induced BAB breakdown (fluorescein leakage into anterior segment)” value [2, 3] was “completely inhibited; also recorded: inhibit”. The “Block of VEGF-induced BAB breakdown (iris leakage)” value [2, 4] was “completely blocked”.
